These are yes or no findings as the source states them, for the method shown. Some entries that bind do so weakly or less than the wild type.

The assay has as its target 食蟹猴CD47-his蛋白 (Acro biosystems, cat#CD7-C52H1) (cynomolgus monkey). Put plainly: capture ELISA, antibody captured by anti-mouse Fcγ, biotinylated cynomolgus CD47-his at 60 nM. (ELISA stands for enzyme-linked immunosorbent assay.)

B1: 小鼠抗人CD47单克隆抗体1H10 (antibody, V domains shown)
VH: EVQLQQSGAELVRSGASVTLSCTASGFKIKDYYMNWVKQRPEQGLEWIGWIGPENGDTENGPKFQDKATMTANTSSNTAFLQLSSLTPEDTAFYYCNAGGRGGFPYWGQGTQVTVST
VL: DILLTQTPLSLPVSLGDQASFSCRSSQDIVHINGKTYLEWYLQKPGQSPKLLIYRVSNRFSGVPDRFSGSGSGTDFTLKISRVEAEDLGVYYCFQGSHVPRTFGGGTKLEIK
Turning to B1, the binding entry is given as “binds”.

Source of the values: patent CN115746133A.
